Experimental data published in publication PMC10282026.
These are yes or no findings as the source states them, for the method shown. Binding seen in cells or lysates may run through a third protein. Some binding calls cover weakened binding; strength is not graded here.

Sequences of proteins named here, by UniProt entry; tags and fusion partners are left off.
UniProt P62137: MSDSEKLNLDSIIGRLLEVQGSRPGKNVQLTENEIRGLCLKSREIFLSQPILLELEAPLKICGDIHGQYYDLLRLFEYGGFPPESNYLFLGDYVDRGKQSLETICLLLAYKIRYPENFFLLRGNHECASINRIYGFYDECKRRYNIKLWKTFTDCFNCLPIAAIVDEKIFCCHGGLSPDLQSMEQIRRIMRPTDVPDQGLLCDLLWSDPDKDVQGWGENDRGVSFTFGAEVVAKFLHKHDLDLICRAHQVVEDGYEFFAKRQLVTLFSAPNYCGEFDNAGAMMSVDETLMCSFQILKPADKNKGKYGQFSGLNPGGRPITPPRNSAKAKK

Biological target: T1, Cyclin L1 (UniProt Q52KE7)
T1 sequence: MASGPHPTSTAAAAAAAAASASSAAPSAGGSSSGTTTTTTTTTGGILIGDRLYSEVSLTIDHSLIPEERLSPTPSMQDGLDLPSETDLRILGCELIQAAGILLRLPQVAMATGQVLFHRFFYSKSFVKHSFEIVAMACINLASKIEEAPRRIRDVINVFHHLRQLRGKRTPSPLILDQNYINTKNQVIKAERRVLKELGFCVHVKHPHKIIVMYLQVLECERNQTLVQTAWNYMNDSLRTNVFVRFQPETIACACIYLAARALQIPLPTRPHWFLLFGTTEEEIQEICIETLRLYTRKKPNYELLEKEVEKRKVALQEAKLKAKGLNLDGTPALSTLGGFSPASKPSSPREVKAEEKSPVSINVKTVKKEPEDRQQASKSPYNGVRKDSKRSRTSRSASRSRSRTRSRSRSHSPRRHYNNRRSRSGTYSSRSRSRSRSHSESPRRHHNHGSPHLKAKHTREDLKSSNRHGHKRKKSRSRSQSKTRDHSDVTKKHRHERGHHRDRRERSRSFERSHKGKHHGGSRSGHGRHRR
Assay: co-IP; Co-IP of CCNL1 and PPP1CA (Supplementary Fig. 8a); cells and direction not told in the main text

binding: binds
Substance: PPP1CA (from UniProt P62137 1-330) (enzyme)
